Laboratory results reported in publication PMC10891346.

B1: Syntaxin6 tagged with the Myc sequence at the N-terminus (Myc-Syx6) (protein, UniProt O43752 1-255)
chain: MSMEDPFFVVKGEVQKAVNTAQGLFQRWTELLQDPSTATREEIDWTTNELRNNLRSIEWDLEDLDETISIVEANPRKFNLDATELSIRKAFITSTRQVVRDMKDQMSTSSVQALAERKNRQALLGDSGSQNWSTGTTDKYGRLDRELQRANSHFIEEQQAQQQLIVEQQDEQLELVSGSIGVLKNMSQRIGGELEEQAVMLEDFSHELESTQSRLDNVMKKLAKVSHMTSDRRQWCAIAILFAVLLVVLILFLVL
B2: in vitro-translated and [35S]-labeled Syx6 (protein, UniProt O43752 1-255)
chain: B1 chain
modifications: [35S]-labeled

Assays:
[1] = target: FLAG-tagged Gag in which the majority of MA was deleted (GagΔMA) (HIV-1 (HXB2 and NL strains cloned; not stated which was used)); assay: co-IP
[2] = target: GST-fused Gag fragment GagΔMA (HIV-1 (the HXB2 strain)); assay: pull-down; only the target purified

Binder | binding [1] | binding [2]
B1 | no binding | –
B2 | – | no binding

These are yes or no findings as the source states them, for the method shown. In cells and extracts the contact can be indirect. For some assays here: Tags and fused reporters may be left off the sequences shown.
